Test results taken from publication doi:10.1101/2024.08.29.607757 (bioRxiv, 2024).
No constants are given. Whether binding was seen depends on the method and setting.

The chains behind the UniProt entries cited, without tags or fusion partners. Residues count along the entry.
UniProt P38023, 319-399: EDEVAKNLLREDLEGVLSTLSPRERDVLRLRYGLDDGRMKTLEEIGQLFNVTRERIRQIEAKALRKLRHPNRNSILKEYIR

How the values were obtained:
Test in all cases: two-hybrid
T18-σ^319-399 = T18-σ^319-399 (UniProt P38023)
σ^319-399-T18 = σ^319-399-T18 (UniProt P38023)
T25-σ^319-399 = T25-σ^319-399 (UniProt P38023)
σ^319-399-T25 = σ^319-399-T25 (UniProt P38023)

B1: T25-NtcA (protein, UniProt P29283 1-222)
chain: MLANENSLLTMFRELGSGKLPLQIEQFERGKTIFFPGDPAERVYLLVKGAVKLSRVYESGEEITVALLRENSVFGVLSLLTGQRSDRFYHAVAFTPVQLFSVPIEFMQKALIERPELANVMLQGLSSRILQTEMMIETLAHRDMGSRLVSFLLILCRDFGIPSPDGITIDLKLSHQAIAEAIGSTRVTVTRLLGDLRESKLIAIHKKRITVFNPVALSQQFS
binding (T18-σ^319-399): no binding | binding (σ^319-399-T18): no binding

B2: T18-NtcA (protein, UniProt P29283 1-222)
chain: B1 chain
binding (T25-σ^319-399): no binding | binding (σ^319-399-T25): no binding
